Publication doi:10.1101/2022.07.11.499577 (bioRxiv, 2022)

Protein sequences, listed by entry. Tags and fused reporters are not part of them.
UniProt Q12432: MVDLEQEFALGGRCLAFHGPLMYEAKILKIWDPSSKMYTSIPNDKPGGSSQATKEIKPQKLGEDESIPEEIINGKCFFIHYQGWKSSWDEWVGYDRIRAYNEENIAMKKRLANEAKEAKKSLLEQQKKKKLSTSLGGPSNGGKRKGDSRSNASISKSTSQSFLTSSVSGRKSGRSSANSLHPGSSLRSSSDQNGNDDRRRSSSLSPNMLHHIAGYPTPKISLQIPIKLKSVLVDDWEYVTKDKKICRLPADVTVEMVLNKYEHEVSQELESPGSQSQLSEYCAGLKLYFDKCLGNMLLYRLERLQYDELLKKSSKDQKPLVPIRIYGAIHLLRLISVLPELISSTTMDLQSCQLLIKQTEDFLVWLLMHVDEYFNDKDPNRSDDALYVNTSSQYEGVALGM

T1: Epl1 with a TAP tag fused to the C-terminus (S. cerevisiae) (UniProt P43572)
T1 sequence: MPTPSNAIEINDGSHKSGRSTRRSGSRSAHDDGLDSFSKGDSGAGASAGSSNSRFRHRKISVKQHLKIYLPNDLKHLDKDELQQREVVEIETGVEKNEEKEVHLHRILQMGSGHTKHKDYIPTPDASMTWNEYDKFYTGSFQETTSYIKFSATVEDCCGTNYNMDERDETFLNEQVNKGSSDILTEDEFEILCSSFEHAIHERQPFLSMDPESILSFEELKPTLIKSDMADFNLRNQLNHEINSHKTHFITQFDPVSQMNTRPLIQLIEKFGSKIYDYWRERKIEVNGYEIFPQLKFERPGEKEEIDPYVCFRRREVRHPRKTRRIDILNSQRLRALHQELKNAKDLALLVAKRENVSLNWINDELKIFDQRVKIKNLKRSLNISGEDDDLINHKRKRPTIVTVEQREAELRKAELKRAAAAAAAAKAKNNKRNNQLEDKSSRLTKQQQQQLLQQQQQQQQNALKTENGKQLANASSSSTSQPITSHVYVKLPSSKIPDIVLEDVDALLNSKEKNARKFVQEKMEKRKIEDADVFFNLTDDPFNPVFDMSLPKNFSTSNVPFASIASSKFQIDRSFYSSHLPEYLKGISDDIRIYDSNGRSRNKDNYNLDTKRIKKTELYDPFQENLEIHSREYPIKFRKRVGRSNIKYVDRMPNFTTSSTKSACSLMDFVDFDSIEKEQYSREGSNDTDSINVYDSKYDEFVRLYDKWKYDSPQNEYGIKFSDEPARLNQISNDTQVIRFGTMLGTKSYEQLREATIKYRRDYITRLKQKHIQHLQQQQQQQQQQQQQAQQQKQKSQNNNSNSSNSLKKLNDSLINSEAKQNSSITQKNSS

B1: Eaf7 (protein, UniProt P53911 1-425)
chain: MVVHWTIVDEIRLLRWASEFKPAGIHKHFHMFCIVERMNSPDKYPVTLLQKETMKLGKVFTAKDIWDKLSQSYNLEKIDEMENTYSLEATTESSRNGNGNGDDAEIHEETLLELNNRIRVRKQDFTLPWEEYGELILENARKSPNSNEEYPRVEDMNEKDSTIPKESPSTDLKNDNNKQEKNATIKVKELPEYHTEENDSPIDVQKEPIKEVQSDEKELQREHMSEEEQKMKSTNKTAAPVRKSQRLKRSKEVKFEDEEKEEIEEDNTKDEEQKEKKEEIQEPKITHNEEVDKEKNENEEGDDEREKSTSYENTNGSESEGVDEGVDEELGYESEREAEGKGKQIESEGGNLKKKTENKKGDDQQDDTKKDSKDKNEPLAKRTRHSSSTGNTSNETSPKRKRRKAGSRKNSPPATRVSSRLRNKK
B2: Yaf9 (protein, UniProt P53930 1-226)
chain: MAPTISKRIKTLSVSRPIIYGNTAKKMGSVKPPNAPAEHTHLWTIFVRGPQNEDISYFIKKVVFKLHDTYPNPVRSIEAPPFELTETGWGEFDINIKVYFVEEANEKVLNFYHRLRLHPYANPVPNSDNGNEQNTTDHNSKDAEVSSVYFDEIVFNEPNEEFFKILMSRPGNLLPSNKTDDCVYSKQLEQEEIDRIEIGIEKVDKEIDELKQKLENLVKQEAINGS
B3: Eaf5 (protein, UniProt P39995 1-279)
chain: MDKEVSELVVLQLIHTLISNKNEELVRNGGGINMIGNNLRISLVKLTNEIQNNLLINELTNLRRQSNVANGNRKLGINDILTIVKNLFPEYRTTLNDGQLSLHGLEMHDIEKLLDEKYDRFKKTQVEQIRMMEDEILKNGIKTGASQLQPHANAGKSGSAGTSATITTTTPHMAHSMDPKREKLLKLYRDTVLNKLESKTGNFQKLFKSPDGSIIKNEINYEDIKNETPGSVHELQLILQKSITDGVMRKVIGTDDWKLARQVQFELDDTVQFMRRALE
B4: Yng2 (protein, UniProt P38806 1-282)
chain: MDPSLVLEQTIQDVSNLPSEFRYLLEEIGSNDLKLIEEKKKYEQKESQIHKFIRQQGSIPKHPQEDGLDKEIKESLLKCQSLQREKCVLANTALFLIARHLNKLEKNIALLEEDGVLAPVEEDGDMDSAAEASRESSVVSNSSVKKRRAASSSGSVPPTLKKKKTSRTSKLQNEIDVSSREKSVTPVSPSIEKKIARTKEFKNSRNGKGQNGSPENEEEDKTLYCFCQRVSFGEMVACDGPNCKYEWFHYDCVNLKEPPKGTWYCPECKIEMEKNKLKRKRN
B5: Esa1 (protein, UniProt Q08649 1-445)
chain: MSHDGKEEPGIAKKINSVDDIIIKCQCWVQKNDEERLAEILSINTRKAPPKFYVHYVNYNKRLDEWITTDRINLDKEVLYPKLKATDEDNKKQKKKKATNTSETPQDSLQDGVDGFSRENTDVMDLDNLNVQGIKDENISHEDEIKKLRTSGSMTQNPHEVARVRNLNRIIMGKYEIEPWYFSPYPIELTDEDFIYIDDFTLQYFGSKKQYERYRKKCTLRHPPGNEIYRDDYVSFFEIDGRKQRTWCRNLCLLSKLFLDHKTLYYDVDPFLFYCMTRRDELGHHLVGYFSKEKESADGYNVACILTLPQYQRMGYGKLLIEFSYELSKKENKVGSPEKPLSDLGLLSYRAYWSDTLITLLVEHQKEITIDEISSMTSMTTTDILHTAKTLNILRYYKGQHIIFLNEDILDRYNRLKAKKRRTIDPNRLIWKPPVFTASQLRFAW
B6: Eaf6 (protein, UniProt P47128 1-113)
chain: MTDELKSYEALKAELKKSLQDRREQEDTFDNLQQEIYDKETEYFSHNSNNNHSGHGGAHGSKSHYSGNIIKGFDTFSKSHHSHADSAFNNNDRIFSLSSATYVKQQHGQSQND
B7: Eaf2/Swc4 (natural protein)
chain: MSSSDIFDVLNIKQKSRSPTNGQVSVPSSSAANRPKPQVTGMQRELFNLLGENQPPVVIKSGNNFKEKMLSTSKPSPWSFVEFKANNSVTLRHWVKGSKELIGDTPKESPYSKFNQHLSIPSFTKEEYEAFMNENEGTQKSVESEKNHNENFTNEKKDESKNSWSFEEIEYLFNLCKKYDLRWFLIFDRYSYNNSRTLEDLKEKFYYTCRNYFKASDPSNPLLSSLNFSAEKEIERKKYLQRLLSRSAAEIAEEEALVVESKKFEMAAKRTLAERESLLRLLDSPHSDQTITQYLTSQGMSQLYNALLADKTRKRKHDLNIPENPWMKQQQQFAQHRQLQQLNVKKSEVKENLSPKKTKRQRQEMQTALKRKSESAYAEQLLKDFNSDERKALGVITHGEKLSPGVYLRSTKLSTFKPALQNKILAILQELSLPSRPVMPSFDVMERQEELLKKINTLIDLKKHVDKYEAGMSITK

biological target: T1, Epl1 with a TAP tag fused to the C-terminus (S. cerevisiae); test: affinity purification with mass spectrometry

binding | Molecule
binds | Actin (from UniProt P60010 1-375)
binds | Eaf3 (from UniProt Q12432 1-401)
binds | B1
binds | B2
binds | B3
binds | B4
binds | B5
binds | B6
binds | B7

These are yes or no findings as the source states them, for the method shown. Binding seen in cells or lysates may run through a third protein. These calls come from enrichment with a bait or labelling near it, and not all partners need be listed. Sequences can lack the tags named with a protein.
